Assay results reported in US20260274807A1 (University of Health Sciences and Pharmacy in St. Louis, priority 2023, published 2026).
The structures given here were assigned with low confidence; some may be wrong.

By UniProt entry, the sequences of proteins in these tests, tags left out.
UniProt P62508, whole entry: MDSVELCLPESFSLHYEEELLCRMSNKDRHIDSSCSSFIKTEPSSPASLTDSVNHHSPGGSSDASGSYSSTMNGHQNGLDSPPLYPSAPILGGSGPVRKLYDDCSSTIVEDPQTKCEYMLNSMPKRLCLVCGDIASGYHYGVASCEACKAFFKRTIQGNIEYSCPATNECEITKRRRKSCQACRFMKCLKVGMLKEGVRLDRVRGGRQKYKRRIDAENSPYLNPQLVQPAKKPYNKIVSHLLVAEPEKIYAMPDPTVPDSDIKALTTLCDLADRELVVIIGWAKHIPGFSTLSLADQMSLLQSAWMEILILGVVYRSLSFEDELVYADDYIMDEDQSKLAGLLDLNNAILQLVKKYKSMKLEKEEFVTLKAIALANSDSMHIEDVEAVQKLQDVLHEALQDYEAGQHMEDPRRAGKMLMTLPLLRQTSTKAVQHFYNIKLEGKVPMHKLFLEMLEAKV
UniProt P11474, whole entry: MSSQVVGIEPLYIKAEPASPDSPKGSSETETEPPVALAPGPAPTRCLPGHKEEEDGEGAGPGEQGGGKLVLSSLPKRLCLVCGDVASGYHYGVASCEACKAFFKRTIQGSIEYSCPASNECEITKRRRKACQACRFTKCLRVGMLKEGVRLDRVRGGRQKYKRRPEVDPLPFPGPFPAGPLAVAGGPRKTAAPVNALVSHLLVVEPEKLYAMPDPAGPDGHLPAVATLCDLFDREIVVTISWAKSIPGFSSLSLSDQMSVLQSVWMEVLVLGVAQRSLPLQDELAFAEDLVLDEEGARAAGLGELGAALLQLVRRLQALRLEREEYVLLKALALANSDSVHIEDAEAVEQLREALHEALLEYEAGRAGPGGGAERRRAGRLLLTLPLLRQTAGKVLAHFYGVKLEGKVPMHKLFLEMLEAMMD

Assays:
ERRγ = ERRγ (Homo sapiens, UniProt P62508); test: ERRE luciferase reporter assay in HEK293 cells transfected with pcDNA3.1 ERRγ; conditions: read-out: EC50 (ERRγ) μM; HEK293 cells transfected with ERRE reporter construct and pcDNA3.1 ERRγ; compound for 24 hours; luciferase activity
ERRα = ERRα (Homo sapiens, UniProt P11474); test: ERRE luciferase reporter assay in HEK293 cells transfected with pcDNA3.1 ERRα; conditions: read-out: EC50 (ERRα) μM; HEK293 cells transfected with ERRE reporter construct and pcDNA3.1 ERRα; compound for 24 hours; luciferase activity

| EC50 (ERRγ) | EC50 (ERRα) | Structure (SMILES) |
| --- | --- | --- |
| 1 to 5 µM | 1 to 5 µM | COC(=O)c1ccc(-c2nnc(-c3ccc(C(F)(F)F)cc3)s2)cc1 |
| 1 to 5 µM | 1 to 5 µM | FC(F)(F)c1ccc(-c2nnc(-c3nccs3)s2)cc1 |
